According to publication doi:10.1101/2025.11.10.687720, “Magnetosome organelles are organized through interactions between McaA and McaB that alter the dynamics of the bacterial actin-like protein MamK” (bioRxiv, 2025):
Results are given in words; binding and its absence hold for the method and conditions named. In cells and extracts the contact can be indirect. Binding calls can cover weak binding; strength is not graded here. Where a sequence is shown, tags or fusion partners need not be part of it.

Assays:
Test in all cases: co-IP; GFP-tagged bait in AMB-1 lysate (NP-40 lysis) on GFP-Trap agarose beads, 1 hr at 4°C, washed with 10 mM Tris-HCl, 150 mM NaCl, pH 7.4; Western blot of the elution; strains ΔmcaAB, ΔmamKΔmcaA, ΔMAIΔMIS, WT, ΔmcaA, ΔmcaBΔmamK, ΔmamKΔmamK-like, Δmms6; biomineralization conditions
[1] = molecular target: McaB-GFP (Magnetospirillum magneticum AMB-1)
[2] = molecular target: McaA-GFP (Magnetospirillum magneticum AMB-1)
[3] = molecular target: McaAΔ530-GFP (Magnetospirillum magneticum AMB-1)

| binding [1] | binding [2] | binding [3] | Binder |
| --- | --- | --- | --- |
| no binding | – | – | Mms6-Halo (protein, UniProt Q2W8R5 1-133) MGEMEREGAAAKAGAAKTGAAKTGTVAKTGIAAKTGVATAVAAPAAPANVAAAQGAGTKVALGAGKAAAGAKVVGGTIWTGKGLGLGLGLGLGAWGPIILGVVGAGAVYAYMKSRDIESAQSDEEVELRDALA |
| binds | binds | binds | MamK-Flag (protein, UniProt Q2W8Q6 1-347) MSEGEGQAKNRLFLGIDLGTSHTAVMSSRGKKFLLKSVVGYPKDVIGLKLLGRPYVVGDEAFEMRSYLDIRYPLQDGVLSEISDRDIEVARHLLTHVVKSAEPGPNDEICAVIGVPARASAANKALLLKMAQEVVHTALVVSEPFMVGYGLDKLINTIIVDIGAGTTDICALKGTVPGPEDQVTLTKAGNYVDERLQNAILERHPELQMNVNVACAVKEQFSFVGTPTEVASFEFRAAGKPVRADVTEPVKIACEALMPDIIESIETLLRSFQPEYQATVLQNIVFAGGGSRIRGLAAYVKEKLRPFGDANVTCVKDPTFDGCRGALRLAEELPPQYWRQLGDVSGS |
